Measurements reported in the supplement of paper PMC8728848.
The other results are listed elsewhere or left out.

Experiments:
Assay in all cases: glycan array binding signal (z-score within array); higher = stronger binding
Conditions in all cases: glycan notation: IUPAC condensed, linker removed
[1] = target: Gal(b1-3)GlcNAc(b1-3)Gal(b1-4)GlcNAc(b1-2)[Gal(b1-3)GlcNAc(b1-3)Gal(b1-4)GlcNAc(b1-6)]Man(a1-6)[Gal(b1-3)GlcNAc(b1-3)Gal(b1-4)GlcNAc(b1-2)Man(a1-3)]Man(b1-4)GlcNAc(b1-4)[Fuc(a1-6)]GlcNAc
In short: (§1)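 Columns mapping to the same glycan were averaged after glycan names were converted to IUPAC-condensed notation. The data come from 3228 arrays in the Consortium for Functional Glycomics database, limited to those with an available protein sequence. Binding is reported as a within-array Z-score averaged across arrays of one protein sequence and across linkers.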

[2] = target: Gal(b1-3)GlcNAc(b1-3)Gal(b1-4)GlcNAc(b1-3)Gal(b1-4)GlcNAc(b1-2)[Gal(b1-3)GlcNAc(b1-3)Gal(b1-4)GlcNAc(b1-3)Gal(b1-4)GlcNAc(b1-6)]Man(a1-6)[Gal(b1-3)GlcNAc(b1-3)Gal(b1-4)GlcNAc(b1-3)Gal(b1-4)GlcNAc(b1-2)Man(a1-3)]Man(b1-4)GlcNAc(b1-4)[Fuc(a1-6)]GlcNAc
In short: as §1

[3] = target: Gal(b1-3)GlcNAc(b1-3)Gal(b1-4)GlcNAc(b1-6)[Gal(b1-3)GlcNAc(b1-3)]Gal(b1-4)Glc
In short: as §1

[4] = target: Gal(b1-3)GlcNAc(b1-3)Gal(b1-4)[Fuc(a1-3)]GlcNAc
In short: as §1

[5] = target: Gal(b1-3)GlcNAc(b1-3)Gal(b1-4)[Fuc(a1-3)]GlcNAc(b1-6)[Gal(b1-3)GlcNAc(b1-3)]Gal(b1-4)Glc
In short: as §1

[6] = target: Gal(b1-3)GlcNAc(b1-3)GalNAc
In short: as §1

[7] = target: Gal(b1-3)GlcNAc(b1-6)Gal(b1-4)GlcNAc
In short: as §1

[8] = target: Gal(b1-3)GlcNAc(b1-6)GalNAc
In short: as §1

[9] = target: Gal(b1-3)GlcNAc(b1-6)[Gal(b1-3)]GalNAc
In short: as §1

Gal(b1-3)GlcNAc6S = target: Gal(b1-3)GlcNAc6S
In short: as §1

[10] = target: Gal(b1-3)[Fuc(a1-4)]GlcNAc
In short: as §1

[11] = target: Gal(b1-3)[Fuc(a1-4)]GlcNAc(b1-2)Man
In short: as §1

[12] = target: Gal(b1-3)[Fuc(a1-4)]GlcNAc(b1-2)Man(a1-3)[Gal(b1-3)[Fuc(a1-4)]GlcNAc(b1-2)Man(a1-6)]Man(b1-4)GlcNAc(b1-4)[Fuc(a1-6)]GlcNAc
In short: as §1

[13] = target: Gal(b1-3)[Fuc(a1-4)]GlcNAc(b1-3)Gal(b1-3)[Fuc(a1-4)]GlcNAc
In short: as §1

[14] = target: Gal(b1-3)[Fuc(a1-4)]GlcNAc(b1-3)Gal(b1-4)[Fuc(a1-3)]GlcNAc
In short: as §1

[15] = target: Gal(b1-3)[Fuc(a1-4)]GlcNAc(b1-6)GalNAc
In short: as §1

[16] = target: Gal(b1-3)[GlcNAc(b1-6)]GalNAc
In short: as §1

[17] = target: Gal(b1-3)[Neu5Ac(a2-6)]GalNAc
In short: as §1

[18] = target: Gal(b1-3)[Neu5Ac(a2-6)]GlcNAc(b1-4)Gal(b1-4)Glc
In short: as §1

[19] = target: Gal(b1-3)[Neu5Ac(b2-6)]GalNAc
In short: as §1

Gal(b1-4)Gal = target: Gal(b1-4)Gal
In short: as §1

[20] = target: Gal(b1-4)GalNAc(a1-3)[Fuc(a1-2)]Gal(b1-4)GlcNAc
In short: as §1

[21] = target: Gal(b1-4)GalNAc(b1-3)[Fuc(a1-2)]Gal(b1-4)GlcNAc
In short: as §1

Gal(b1-4)Glc = target: Gal(b1-4)Glc
In short: as §1

Gal(b1-4)Glc6S = target: Gal(b1-4)Glc6S
In short: as §1

Gal(b1-4)GlcNAc = target: Gal(b1-4)GlcNAc
In short: as §1

[22] = target: Gal(b1-4)GlcNAc(a1-6)Gal(b1-4)GlcNAc
In short: as §1

Gal(b1-4)GlcNAc(b1-2)Man = target: Gal(b1-4)GlcNAc(b1-2)Man
In short: as §1

[23] = target: Gal(b1-4)GlcNAc(b1-2)Man(a1-3)Man(b1-4)GlcNAc(b1-4)GlcNAc
In short: as §1

[24] = target: Gal(b1-4)GlcNAc(b1-2)Man(a1-3)[Gal(b1-4)GlcNAc(b1-2)Man(a1-6)]Man(b1-4)GlcNAc(b1-4)GlcNAc
In short: as §1

[25] = target: Gal(b1-4)GlcNAc(b1-2)Man(a1-3)[Gal(b1-4)GlcNAc(b1-2)Man(a1-6)]Man(b1-4)GlcNAc(b1-4)[Fuc(a1-6)]GlcNAc
In short: as §1

[26] = target: Gal(b1-4)GlcNAc(b1-2)Man(a1-3)[Gal(b1-4)GlcNAc(b1-2)Man(a1-6)][Gal(b1-4)GlcNAc(b1-4)]Man(b1-4)GlcNAc(b1-4)[Fuc(a1-6)]GlcNAc
In short: as §1

[27] = target: Gal(b1-4)GlcNAc(b1-2)Man(a1-3)[Gal(b1-4)GlcNAc(b1-2)Man(a1-6)][GlcNAc(b1-4)]Man(b1-4)GlcNAc(b1-4)[Fuc(a1-6)]GlcNAc
In short: as §1

[28] = target: Gal(b1-4)GlcNAc(b1-2)Man(a1-3)[GlcNAc(b1-2)Man(a1-6)]Man(b1-4)GlcNAc(b1-4)GlcNAc
In short: as §1

[29] = target: Gal(b1-4)GlcNAc(b1-2)Man(a1-3)[GlcNAc(b1-4)][Gal(b1-4)GlcNAc(b1-2)Man(a1-6)]Man(b1-4)GlcNAc(b1-4)GlcNAc
In short: as §1

[30] = target: Gal(b1-4)GlcNAc(b1-2)Man(a1-3)[Man(a1-6)]Man(b1-4)GlcNAc(b1-4)GlcNAc
In short: as §1

[31] = target: Gal(b1-4)GlcNAc(b1-2)Man(a1-6)Man(b1-4)GlcNAc(b1-4)GlcNAc
In short: as §1

[32] = target: Gal(b1-4)GlcNAc(b1-2)Man(a1-6)[GlcNAc(b1-2)Man(a1-3)]Man(b1-4)GlcNAc(b1-4)GlcNAc
In short: as §1

B1: HopZSSI-T (Helicobacter pylori), B5Z6D0 (protein)
chain: MGSSHHHHHHSSGLVPRGSHMENLYFQGEDNGFFISAGYQIGEAAQMVKNTGELKKLSDTYENLSNLLTNFNNLNQAVTNASSPSEINAAIDNLKANTQGLTGEKTNSPAYQAVYLALNAAVGLWNVIAYNVQCGPGNSSQQSVTFEGQPGHNSSSINCNLTGYNNGVSGPLSIDNFKQLNQAYQVLQQALKQGVPVLNNTNQKIEVKVTTQTNGQSSKETTTTTTTNDAQTLLQEASKMIDVLTTNCPWVNHNPGQNGGAPWGLIRQECVSGFATEFSAVTSMIKNAQEIVTQAQSLNANQNNQNAPQDFNPYTSADRAFAQNMLNHAQAQAKILELADQMKKDLNTIPSQFITNYLAACRIDGTTPSQGVTNNTWGAGCAYVEETITALNNSLAHFGTQAEQIKQSELLARTILDFRGSLSTLNSTYNSITTTASNTPNSPFLKNLISQSTNPNNPGGLQAVYQVNQSAYSQLLSATQELGHNPFRRIGLISSQT
[1]
  glycan array binding signal (z-score): 0.278
[2]
  glycan array binding signal (z-score): 0.589
[3]
  glycan array binding signal (z-score): -0.499
[4]
  glycan array binding signal (z-score): -0.213
[5]
  glycan array binding signal (z-score): -0.218
[6]
  glycan array binding signal (z-score): -0.174
[7]
  glycan array binding signal (z-score): 0.041
[8]
  glycan array binding signal (z-score): -0.052
[9]
  glycan array binding signal (z-score): -0.549
Gal(b1-3)GlcNAc6S
  glycan array binding signal (z-score): 0.642
[10]
  glycan array binding signal (z-score): -0.544
[11]
  glycan array binding signal (z-score): 0.292
[12]
  glycan array binding signal (z-score): 0.008
[13]
  glycan array binding signal (z-score): -0.459
[14]
  glycan array binding signal (z-score): -0.632
[15]
  glycan array binding signal (z-score): -0.224
[16]
  glycan array binding signal (z-score): 1.03
[17]
  glycan array binding signal (z-score): -0.197
[18]
  glycan array binding signal (z-score): -0.338
[19]
  glycan array binding signal (z-score): 0.272
Gal(b1-4)Gal
  glycan array binding signal (z-score): 0.639
[20]
  glycan array binding signal (z-score): -0.243
[21]
  glycan array binding signal (z-score): -0.529
Gal(b1-4)Glc
  glycan array binding signal (z-score): -0.526
Gal(b1-4)Glc6S
  glycan array binding signal (z-score): 0.852
Gal(b1-4)GlcNAc
  glycan array binding signal (z-score): 0.036
[22]
  glycan array binding signal (z-score): -0.398
Gal(b1-4)GlcNAc(b1-2)Man
  glycan array binding signal (z-score): 0.042
[23]
  glycan array binding signal (z-score): -0.359
[24]
  glycan array binding signal (z-score): -0.691
[25]
  glycan array binding signal (z-score): -0.035
[26]
  glycan array binding signal (z-score): -0.243
[27]
  glycan array binding signal (z-score): -0.305
[28]
  glycan array binding signal (z-score): -0.303
[29]
  glycan array binding signal (z-score): -0.51
[30]
  glycan array binding signal (z-score): 0.105
[31]
  glycan array binding signal (z-score): -0.076
[32]
  glycan array binding signal (z-score): -0.286
